# For at least one compound, name, drawing or mass did not settle the structure.
# The chains behind the UniProt entries cited, without tags or fusion partners.
# UniProt Q96D31, whole entry: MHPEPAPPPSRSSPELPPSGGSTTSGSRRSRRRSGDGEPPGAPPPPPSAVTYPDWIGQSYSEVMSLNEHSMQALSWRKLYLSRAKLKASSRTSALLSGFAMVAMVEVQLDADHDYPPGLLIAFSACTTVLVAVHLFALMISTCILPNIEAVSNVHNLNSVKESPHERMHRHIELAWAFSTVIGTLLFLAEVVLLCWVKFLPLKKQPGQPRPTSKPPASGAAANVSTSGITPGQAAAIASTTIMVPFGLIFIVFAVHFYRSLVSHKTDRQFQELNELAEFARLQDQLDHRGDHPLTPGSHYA
# Legend:
# CRAC channel = CRAC channel (Homo sapiens, UniProt Q96D31); assay: CRAC channel activity / SOCE by Fura 2-AM cytosolic Ca2+ imaging in HEK293T cells; assay type: cell-based; set-up: endogenous in cells; host or cells: HEK293T; details: 10 μM, 1 μM thapsigargin then 2 mM Ca2+
# DDR2 = target: T1, DDR2 (Homo sapiens, UniProt Q16832); assay: DDR2 activation (anti-phosphotyrosine Western blot) in HEK293T cells overexpressing DDR2, collagen-stimulated; assay type: cell-based; details: 10 μM pretreatment 30 minutes, then 50 μg/mL type I collagen 12 hours
# T1 construct: expressed in transfected cells; host or cells: HEK293T
# T1 sequence (Q16832 22-855): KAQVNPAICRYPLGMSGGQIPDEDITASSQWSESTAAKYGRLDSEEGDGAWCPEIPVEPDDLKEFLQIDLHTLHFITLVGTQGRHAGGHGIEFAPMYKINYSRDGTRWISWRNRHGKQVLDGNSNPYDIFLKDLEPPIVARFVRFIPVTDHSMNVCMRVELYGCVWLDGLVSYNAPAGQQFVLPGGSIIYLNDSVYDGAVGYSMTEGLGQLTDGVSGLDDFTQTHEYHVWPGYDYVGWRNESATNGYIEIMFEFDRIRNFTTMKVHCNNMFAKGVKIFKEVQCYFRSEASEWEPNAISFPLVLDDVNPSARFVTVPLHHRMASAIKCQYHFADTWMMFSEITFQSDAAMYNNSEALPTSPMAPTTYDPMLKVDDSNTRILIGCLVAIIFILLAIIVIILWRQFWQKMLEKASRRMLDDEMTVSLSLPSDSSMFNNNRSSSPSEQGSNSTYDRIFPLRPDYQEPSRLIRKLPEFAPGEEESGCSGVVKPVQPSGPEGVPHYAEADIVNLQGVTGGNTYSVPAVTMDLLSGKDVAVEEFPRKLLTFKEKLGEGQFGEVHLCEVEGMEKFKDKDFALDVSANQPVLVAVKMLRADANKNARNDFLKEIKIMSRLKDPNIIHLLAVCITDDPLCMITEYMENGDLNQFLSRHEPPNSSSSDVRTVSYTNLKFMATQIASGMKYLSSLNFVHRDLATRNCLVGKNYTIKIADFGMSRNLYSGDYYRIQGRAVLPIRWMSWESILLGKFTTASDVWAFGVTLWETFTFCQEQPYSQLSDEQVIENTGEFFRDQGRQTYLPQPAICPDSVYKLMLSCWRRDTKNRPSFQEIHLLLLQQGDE
# Description: FIG. 1A, FIG. 1B, FIG. 1C, FIG. 1D, FIG. 1E, FIG. 1F, FIG. 1G, FIG. 1H, FIG. 1I, FIG. 1J, FIG. 1K, FIG. 1L, FIG. 1M, and FIG. 1N show WRG-28 and atovaquone (Av) suppress the activation of DDR2 and calcium release-activated calcium (CRAC) channel. FIG. 1A indicates HEK293T cells were transiently overexpressed with DDR2 and then pretreated with different compounds (10 μM), including WRG-28, Av, donepezil hydrochloride (Dh), terazosin hydrochloride (Th), verapamil and flecainide for 30 minutes. Verapamil and flecainide were used as negative control here. After that, cells were treated with 50 μg/mL type I collagen for 12 hours. […] CRAC channel activity was evaluated by applying 1 μM thapsigargin (Thap.) in a calcium-free solution to deplete the endoplasmic reticulum calcium store, followed by the reintroduction of 2 mM Ca^2+ in an external solution. […] Further analyses are presented in FIG. 1I and FIG. 1J, where the second peak of each wave and rate of entry were analyzed. […] The Orai1 and Stim1 puncta in HEK293T cells overexpressed with CFP-Orai1/Stim1-mCherry were assessed. […]
# To examine the impact of these compounds on DDR2 activation, HEK293T cells overexpressing DDR2 were pretreated with various compounds. […] The activation of DDR2 was evaluated using an anti-phosphotyrosine antibody. […]
# Jurkat T cells = assay: Cytokine secretion in T cells (ELISA); assay type: cell-based, human; details: PHA/PMA induction, culture medium
structure (smiles),measurement,setting,value
"O=C1C(O)=C([C@H]2CC[C@H](c3ccc(Cl)cc3)CC2)C(=O)c2ccccc21 [Av, atovaquone]",second peak and rate of SOCE,CRAC channel,significantly reduced
same,activation of DDR2 (phosphotyrosine),DDR2,significantly reduced
same,secretion of IL-2 in T cells,Jurkat T cells,significantly reduces
